{"source": "patent US8163699B2", "about": "“Method for the treatment of valvular disease” (Montreal Heart Institute, priority 2006, dated 2012)", "assay": "Serum lipids and calcemia in rabbit model of aortic valve stenosis", "format": "in vivo, New-Zealand White rabbits", "settings": "treated group, at the end of treatment", "procedure": "The animals then returned to a standard diet (without vitamin D2) to mimic cholesterol lowering and were randomly assigned to receive either saline (control group, n=8) or the ApoA-1 mimetic peptide (treated group, n=7). Rabbits were given injections through the marginal ear vein of saline or of the ApoA-1 mimetic peptide (25 mg/kg) complexed with phospholipids (Compound A), 3 times per week for 2 weeks. Echocardiograms were performed serially (see Echocardiography Methods) every 3 to 4 days throughout the randomized treatment period. Two days after their last infusion, the animals underwent a final echocardiogram and were sacrificed, and the aortic valves were harvested for histological analyses. Blood samples were obtained through the ear artery at baseline, prior to treatment and before sacrifice. Total cholesterol, HDL cholesterol, triglycerides and calcium levels were measured with an automated filter photometer system (Dimension RxL Max, Dade Behring, Ill.).\nData are presented as mean±standard deviation. For the “pre-treatment” period, repeated measures analysis of variance (ANOVA) models were used to study the echocardiographic and serum measurements across time and between groups (treated vs. control groups). […] Relationships between histomorphometry and echocardiographic variables were evaluated using Pearson correlation coefficient. […]"}
{"substance": "H-Pro-Val-Leu-Asp-Leu-Phe-Arg-Glu-Leu-Leu-Asn-Glu-Leu-Leu-Glu-Ala-Leu-Lys-Gln-Lys-Leu-Lys-OH [ApoA-1 mimetic peptide]", "values": [{"measurement": "calcemia", "result": "3.22 ± 0.12", "unit": "mmol/L"}]}
